From PubChem BioAssay AID292 (DTP/NCI, 2004) come the findings set out here.

The test has as its system B6C3F1 mice, ip Sarcoma M5076, median survival T/C. Kind of test: NCI In Vivo Anticancer Drug Screen. Data for tumor model Sarcoma M5076 (intraperitoneal) in B6C3F1 mice. The settings on record: T/C endpoint: median survival time, higher T/C = longer survival. In outline: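 The readout is a ratio of survival in drug-treated animals to survival in animals given vehicle alone, taken in mice bearing a transplanted tumour line.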

The mark [1] stands for this setting: dose: 200.0 mg/kg/injection, schedule: Q04DX004 (ip), vehicle: saline with Tween-80.
The mark [2] stands for this setting: dose: 50.0 mg/kg/injection, schedule: Q04DX004 (ip), vehicle: saline with Tween-80.
Setting [3] is: dose: 400.0 mg/kg/injection, schedule: Q04DX004 (ip), vehicle: saline with Tween-80.
Where [4] appears, read: dose: 800.0 mg/kg/injection, schedule: Q04DX004 (ip), vehicle: Klucel (hydroxypropylcellulose) (HPC).
[5] abbreviates: dose: 400.0 mg/kg/injection, schedule: Q04DX004 (ip), vehicle: saline.
Where [6] appears, read: dose: 800.0 mg/kg/injection, schedule: Q04DX004 (ip), vehicle: saline with Tween-80.
Setting [7] is: dose: 800.0 mg/kg/injection, schedule: Q04DX004 (ip), vehicle: saline.
Where [8] appears, read: dose: 800.0 mg/kg/injection, schedule: Q04DX005 (ip), vehicle: saline.

Structures are written as SMILES. The list shows only some results of the screen, not a fair sample: it gathers tests that were run many times, whatever their T/C, doses with no T/C, and many T/C values between a quarter and a half above the control. Further doses and runs are listed elsewhere. T/C is the treated group as % of the vehicle group. Some entries give survivors of the animals treated and no T/C: the source files T/C as zero there, which appears to mark a toxic dose or a test without result, not a measured value. Some survivor counts are full or nearly so, which does not show that the dose was tolerated: the source hardly ever lists a survival T/C far under the control, and the zero likely stands for such cases as well. Survivors were counted at the toxicity check, usually on the fifth day, unless a day is given; later deaths do not show. Schedule codes are those of the source, taken here to give the interval after Q, in days (D) or hours (H), and the number of doses after X. Some entries were tested several times; their values stand side by side, smallest first. For survival time, the PubChem record calls one and a half times the control and up active, and a quarter to a half above the control has no call in these data; cut-offs in other NCI protocols can differ. Some T/C values carry the count of animals alive at the toxicity check (mostly the fifth day); where none is given, no animal had died by that day. Signs of the kind (2×) give the number of equal values in this list.

Turning to `C=CC(=O)NCNC(=O)C=C`, the T/C (dose: 200.0 mg/kg/injection, schedule: Q04DX004 (ip), vehicle: suspension in saline) was 137 % of control. For the same molecule, the survivor count runs as follows: (dose: 400.0 mg/kg/injection, schedule: Q04DX004 (ip), vehicle: suspension in saline) 0 of 10 on day 14; (dose: 800.0 mg/kg/injection, schedule: Q04DX004 (ip), vehicle: suspension in saline) 0 of 10 on day 14.
Take `COc1ccc(N2CCCSC2=S)cc1`: the survivor count is 10 of 10 on day 14 (dose: 125.0 mg/kg/injection, schedule: Q04DX004 (ip), vehicle: saline + Tween-80 + alcohol); 10 of 10 on day 14 (dose: 250.0 mg/kg/injection, schedule: Q04DX004 (ip), vehicle: saline + Tween-80 + alcohol); 2 of 10 on day 14 (dose: 500.0 mg/kg/injection, schedule: Q04DX004 (ip), vehicle: saline + Tween-80 + alcohol).
As to `NC(=O)c1oc([N+](=O)[O-])c(-c2ccccc2)c1-c1ccccc1`, for the setting “dose: 600.0 mg/kg/injection, schedule: Q04DX004 (ip), vehicle: saline with Tween-80”, the survivor count was 10 of 10 on day 14.
As to `O=S(=O)(O)SCCNCCCCC1CCCCC1`, the survivor count is listed as 5 of 10 on day 14 (dose: 30.0 mg/kg/injection, schedule: Q04DX004 (ip), vehicle: saline with Tween-80) and 0 of 10 on day 14 (dose: 60.0 mg/kg/injection, schedule: Q04DX004 (ip), vehicle: saline with Tween-80).
On to `Clc1ccccc1C(Cc1c(Cl)cccc1Cl)Cn1ccnc1` (stereo unspecified), for which the survivor count under setting [1] is recorded as 1 of 10 on day 14.
With `O=C(Nc1ccccc1)c1c(O)[nH]c(=S)[nH]c1=O`, the T/C (dose: 12.5 mg/kg/injection, schedule: Q04DX004 (ip), vehicle: saline with Tween-80) was 108, 112, 113, 119 % of control; the T/C (dose: 25.0 mg/kg/injection, schedule: Q04DX004 (ip), vehicle: saline with Tween-80) was 114, 115, 116, 118, 119, 124, 130 % of control; the T/C under setting [2] was 127, 131, 133 (2×), 135, 147, 149 % of control; the T/C (dose: 100.0 mg/kg/injection, schedule: Q04DX004 (ip), vehicle: saline with Tween-80) is 139, 144 [8 of 10 alive on day 14], 155 [7 of 10 alive on day 14], 157, 170, 172, 207 % of control [8 of 10 alive on day 14]; the T/C under setting [1] is 164, 184, 184 % of control [9 of 10 alive on day 14]. In addition, the survivor count is 0 of 10 on day 14, 4 of 10 on day 14, 5 of 10 on day 14 under setting [1]; 0 of 10 on day 14 and 2 of 10 on day 14 under setting [3].
Regarding `O=c1c(O)c(O)c1=O.[NH2-].[NH2-].[NH2-].[NH2-].[NH2-].[Ru+5]`, the survivor count is given as 8 of 10 on day 14 (dose: 50.0 mg/kg/injection, schedule: Q04DX004 (ip), vehicle: suspension in saline) and 0 of 10 on day 14 (dose: 100.0 mg/kg/injection, schedule: Q04DX004 (ip), vehicle: suspension in saline).
Regarding `Nc1nc2ncn(O)c2c(=O)[nH]1`, the T/C is 126 % of control (dose: 6.25 mg/kg/injection, schedule: Q04DX004 (ip), vehicle: water); 132 % of control (dose: 12.5 mg/kg/injection, schedule: Q04DX004 (ip), vehicle: water); 126 % of control (dose: 25.0 mg/kg/injection, schedule: Q04DX004 (ip), vehicle: water). Also, the survivor count is, setting by setting: (dose: 50.0 mg/kg/injection, schedule: Q04DX004 (ip), vehicle: water) 5 of 10 on day 14; (dose: 100.0 mg/kg/injection, schedule: Q04DX004 (ip), vehicle: water) 1 of 10 on day 14.
Take `COc1cc(C#N)c(NC(=S)N2CCN(C(=O)c3ccco3)CC2)cc1OC`: the survivor count under setting [4] is given as 3 of 10 on day 14.
As for `O=C1c2c(O)cccc2-c2nn(CCNCCO)c3ccc(NCCNCCO)c1c23`, for the setting “dose: 11.0 mg/kg/injection, schedule: Q04DX004 (ip), vehicle: water”, the T/C was 131 % of control. Besides, the survivor count is, setting by setting: (dose: 22.0 mg/kg/injection, schedule: Q04DX004 (ip), vehicle: water) 2 of 10 on day 14; (dose: 44.0 mg/kg/injection, schedule: Q04DX004 (ip), vehicle: water) 0 of 10 on day 14; (dose: 88.0 mg/kg/injection, schedule: Q04DX004 (ip), vehicle: water) 0 of 10 on day 14.
Turning to `NS(=O)(=O)OCCCCCCCOS(N)(=O)=O`, the T/C under setting [2] is 147 % of control. For the same molecule, the survivor count runs as follows: under setting [1], 8 of 10 on day 14; under setting [3], 0 of 10 on day 14.
Regarding `C=C(Cl)C(=NC(C)(C)C)Nc1ccccc1C`, for the setting “dose: 12.5 mg/kg/injection, schedule: Q04DX004 (ip), vehicle: Klucel (hydroxypropylcellulose) (HPC)”, the T/C was 137 % of control. For the same molecule, the survivor count by setting is: (dose: 50.0 mg/kg/injection, schedule: Q04DX004 (ip), vehicle: Klucel (hydroxypropylcellulose) (HPC)) 0 of 10 on day 14; (dose: 100.0 mg/kg/injection, schedule: Q04DX004 (ip), vehicle: Klucel (hydroxypropylcellulose) (HPC)) 0 of 10 on day 14.
On to `NC(=O)C1=CC2C3C=CC2(O)C(=O)OC3O1` (stereo unspecified), for which the survivor count (dose: 120.0 mg/kg/injection, schedule: Q04DX004 (ip), vehicle: Klucel (hydroxypropylcellulose) (HPC)) is on record as 0 of 10 on day 14.
On to `COc1cc2c(c(OC)c1OC)-c1ccc(OC)c(=O)cc1[C@@H](NC(C)=O)CC2`, for which the T/C (dose: 1.5 mg/kg/injection, schedule: Q04DX004 (ip), vehicle: saline) was 126 and 128 % of control [9 of 10 alive on day 14]. Also, the survivor count (dose: 3.0 mg/kg/injection, schedule: Q04DX004 (ip), vehicle: saline) is on record as 1 of 10 on day 14.
As to `CCN(CC)CCCC(C)Nc1c2ccc(Cl)cc2nc2ccc(OC)cc12` (stereo unspecified), under setting [5], the survivor count was 0 of 10 on day 14.
As for `CC1=NN(c2ccccc2)C(=O)C1=Nc1c(C)[nH]n(-c2ccccc2)c1=O`, under setting [6], the survivor count was 6 of 10 on day 14.
Turning to `OCC(O)C(O)C(O)C(O)CO` (stereo unspecified), where the note is “dose: 150.0 mg/kg/injection, schedule: Q04DX004 (ip), vehicle: saline”, the survivor count is reported as 10 of 10 on day 14.
Take `CC(=O)C(Cl)C(=O)c1c(C)[nH]n(-c2ccccc2)c1=O` (stereo unspecified): the survivor count was 0 of 10 on day 14 (dose: 400.0 mg/kg/injection, schedule: Q04DX004 (ip), vehicle: Klucel (hydroxypropylcellulose) (HPC)) and 0 of 10 on day 14 under setting [4].
Consider `Nc1nncs1`, for which the T/C is, setting by setting: (dose: 100.0 mg/kg/injection, schedule: Q04DX004 (ip), vehicle: saline, evaluated on day 60) 120 % of control; (dose: 100.0 mg/kg/injection, schedule: Q04DX004 (ip), vehicle: saline, evaluated on day 75) 103, 105, 112, 117 [9 of 10 alive], 122 [9 of 10 alive on day 14], 123 % of control; (dose: 100.0 mg/kg/injection, schedule: Q04DX005 (ip), vehicle: saline) 130 % of control; (dose: 200.0 mg/kg/injection, schedule: Q04DX004 (ip), vehicle: saline, evaluated on day 60) 138 % of control; (dose: 200.0 mg/kg/injection, schedule: Q04DX004 (ip), vehicle: saline, evaluated on day 75) 112, 115, 120 [9 of 10 alive on day 14], 125 (2×), 138 % of control; (dose: 200.0 mg/kg/injection, schedule: Q04DX005 (ip), vehicle: saline) 125 % of control. Further, the T/C reads like this: (dose: 400.0 mg/kg/injection, schedule: Q04DX004 (ip), vehicle: saline, evaluated on day 60) 141 % of control; (dose: 400.0 mg/kg/injection, schedule: Q04DX004 (ip), vehicle: saline, evaluated on day 75) 118 (2×), 120, 122, 129 % of control; (dose: 400.0 mg/kg/injection, schedule: Q04DX005 (ip), vehicle: saline with Tween-80) 128 % of control; (dose: 400.0 mg/kg/injection, schedule: Q04DX005 (ip), vehicle: saline) 128 and 134 % of control; under setting [6], 126 % of control; under setting [7], 119, 122, 126, 153, 163 % of control. Further, the T/C (dose: 800.0 mg/kg/injection, schedule: Q04DX005 (ip), vehicle: saline with Tween-80) was 132 % of control and the T/C under setting [8] is 129 % of control. In addition, the survivor count is 9 of 10 on day 14 under setting [5]; 10 of 10 and 10 of 10 on day 14 under setting [7]; 10 of 10 under setting [8].
Consider `O=Cc1ccc(O)c(O)c1`, for which the survivor count under setting [6] is given as 0 of 10 on day 14.
